According to publication doi:10.1101/2025.11.23.689998:
Results are given in words; binding and its absence hold for the method and conditions named. Binding seen in cells or lysates may run through a third protein. Here binding means that the protein was enriched with, or labelled near, the bait; the list need not be complete.

Sequences of proteins named here, by UniProt entry; tags and fusion partners are left off.
UniProt Q9FIJ0: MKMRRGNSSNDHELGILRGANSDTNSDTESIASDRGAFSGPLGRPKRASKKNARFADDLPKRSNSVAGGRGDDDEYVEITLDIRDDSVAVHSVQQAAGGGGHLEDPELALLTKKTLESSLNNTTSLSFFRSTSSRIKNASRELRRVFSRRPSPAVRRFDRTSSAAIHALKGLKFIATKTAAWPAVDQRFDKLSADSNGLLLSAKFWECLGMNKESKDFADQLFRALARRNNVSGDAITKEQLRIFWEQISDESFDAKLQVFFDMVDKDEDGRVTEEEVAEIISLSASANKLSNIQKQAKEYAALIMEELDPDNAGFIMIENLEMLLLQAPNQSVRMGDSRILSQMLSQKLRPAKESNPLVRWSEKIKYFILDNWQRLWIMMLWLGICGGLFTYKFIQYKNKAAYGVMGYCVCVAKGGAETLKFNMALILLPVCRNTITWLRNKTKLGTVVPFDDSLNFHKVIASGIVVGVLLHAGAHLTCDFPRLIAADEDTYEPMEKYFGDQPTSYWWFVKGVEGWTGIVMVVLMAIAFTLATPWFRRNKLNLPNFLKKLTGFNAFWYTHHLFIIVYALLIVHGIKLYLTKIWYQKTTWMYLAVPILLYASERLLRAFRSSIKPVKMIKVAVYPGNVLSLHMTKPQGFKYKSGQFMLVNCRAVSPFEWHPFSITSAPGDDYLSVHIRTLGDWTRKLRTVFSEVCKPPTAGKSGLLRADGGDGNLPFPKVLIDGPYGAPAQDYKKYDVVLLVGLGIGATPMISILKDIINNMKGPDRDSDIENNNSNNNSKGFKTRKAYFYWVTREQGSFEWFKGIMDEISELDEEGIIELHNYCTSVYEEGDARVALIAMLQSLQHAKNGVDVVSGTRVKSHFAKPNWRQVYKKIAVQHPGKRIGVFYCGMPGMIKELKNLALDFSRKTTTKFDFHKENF

B1: LEUCINE-RICH REPEAT (LRR) like receptor At1g53430 (receptor, UniProt C0LGG8 29-1038)
chain: QLLPEDEVQTLRTIFRKLQNQTVNIERTSCSDQNWNFVVESASNSPTSNITCDCTFNASSVCRVTNIQLKSFSLPGIFPPEFGNLTRLREIDLSRNFLNGTIPTTLSQIPLEILSVIGNRLSGPFPPQLGDITTLTDVNLETNLFTGPLPRNLGNLRSLKELLLSANNFTGQIPESLSNLKNLTEFRIDGNSLSGKIPDFIGNWTLLERLDLQGTSMEGPIPPSISNLTNLTELRITDLRGQAAFSFPDLRNLMKMKRLVLRNCLIRGPIPEYIGSMSELKTLDLSSNMLTGVIPDTFRNLDAFNFMFLNNNSLTGPVPQFIINSKENLDLSDNNFTQPPTLSCNQLDVNLISSYPSVTDNSVQWCLREGLPCPEDAKQSSLFINCGGSRLKIGKDTYTDDLNSRGQSTFSSVSERWGYSSSGVWLGKEDAGYLATDRFNLINGSTPEYYKTARLSPQSLKYYGLCLRRGSYKLQLHFAEIMFSNDQTFNSLGRRIFDIYVQGNLLERDFNIAERAGGVGKPFIRQIDGVQVNGSTLEIHLQWTGKGTNVIPTRGVYGPLISAITITPNFKVDTGKPLSNGAVAGIVIAACAVFGLLVLVILRLTGYLGGKEVDENEELRGLDLQTGSFTLKQIKRATNNFDPENKIGEGGFGPVYKGVLADGMTIAVKQLSSKSKQGNREFVTEIGMISALQHPNLVKLYGCCIEGKELLLVYEYLENNSLARALFGTEKQRLHLDWSTRNKICIGIAKGLAYLHEESRLKIVHRDIKATNVLLDLSLNAKISDFGLAKLNDDENTHISTRIAGTIGYMAPEYAMRGYLTDKADVYSFGVVCLEIVSGKSNTNYRPKEEFVYLLDWAYVLQEQGSLLELVDPDLGTSFSKKEAMRMLNIALLCTNPSPTLRPPMSSVVSMLEGKIKVQPPLVKREADPSGSAAMRFKALELLSQDSESQVSTYARNREQDISSSSMDGPWVDSSFSEPGKDVSLQQQEEGRSSSSSRKLLDDLTDVKIE
B2: LEUCINE-RICH REPEAT (LRR) like receptor At3g14840 (receptor, UniProt C0LGN2 27-1020)
chain: ATLPKEEVDALQSVATALKKSNWNFSVDPCDETLSEGGWRNPNAAKGFEDAVTCNCSSVICHVTNIVLKAQDLQGSLPTDLSGLPFLQELDLTRNYLNGSIPPEWGASSLLNISLLGNRISGSIPKELGNLTTLSGLVLEYNQLSGKIPPELGNLPNLKRLLLSSNNLSGEIPSTFAKLTTLTDLRISDNQFTGAIPDFIQNWKGLEKLVIQASGLVGPIPSAIGLLGTLTDLRITDLSGPESPFPPLRNMTSMKYLILRNCNLTGDLPAYLGQNRKLKNLDLSFNKLSGPIPATYSGLSDVDFIYFTSNMLNGQVPSWMVDQGDTIDITYNNFSKDKTEECQQKSVNTFSSTSPLVANNSSNVSCLSKYTCPKTFYGLHINCGGNEITSNETKYDADTWDTPGYYDSKNGWVSSNTGNFLDDDRTNNGKSKWSNSSELKITNSSIDFRLYTQARLSAISLTYQALCLGKGNYTVNLHFAEIMFNEKNMYSNLGRRYFDIYVQGKREVKDFNIVDEAKGVGKAVVKKFPVMVTNGKLEIRLQWAGKGTQAIPVRGVYGPLISAVSVDPDFIPPKEPGTGTGGGSSVGTVVGSVIASTVFLVLLIGGILWWRGCLRPKSQMEKDFKNLDFQISSFSLRQIKVATDNFDPANKIGEGGFGPVHKGIMTDGTVIAVKQLSAKSKQGNREFLNEIAMISALQHPHLVKLYGCCVEGDQLLLVYEYLENNSLARALFGPQETQIPLNWPMRQKICVGIARGLAYLHEESRLKIVHRDIKATNVLLDKELNPKISDFGLAKLDEEENTHISTRVAGTYGYMAPEYAMRGHLTDKADVYSFGVVALEIVHGKSNTSSRSKADTFYLLDWVHVLREQNTLLEVVDPRLGTDYNKQEALMMIQIGMLCTSPAPGDRPSMSTVVSMLEGHSTVNVEKLLEASVNNEKDEESVRAMKRHYATIGEEEITNTTTTDGPFTSSSTSTANANDLYPVKLDSAYWNTRT

Target: HA-tagged RBOHD (RESPIRATORY BURST OXIDASE PROTEIN D) (Arabidopsis thaliana) (UniProt Q9FIJ0)
Test: affinity purification with mass spectrometry

Binder	binding
B1	binds
B2	binds
